Measured values reported in patent publication US20120009123A1, “Albumin binding peptide-mediated disease targeting” (ABRAXIS BIOSCIENCE, LLC, priority 2008, published 2012).
Results are given in words; binding and its absence hold for the method and conditions named. Some results given as binding are weak or reduced against the parent protein; the word gives no strength.

By UniProt entry, the sequences of proteins in these tests, tags left out. Residues count along the entry.
UniProt P02768, residues 25-609: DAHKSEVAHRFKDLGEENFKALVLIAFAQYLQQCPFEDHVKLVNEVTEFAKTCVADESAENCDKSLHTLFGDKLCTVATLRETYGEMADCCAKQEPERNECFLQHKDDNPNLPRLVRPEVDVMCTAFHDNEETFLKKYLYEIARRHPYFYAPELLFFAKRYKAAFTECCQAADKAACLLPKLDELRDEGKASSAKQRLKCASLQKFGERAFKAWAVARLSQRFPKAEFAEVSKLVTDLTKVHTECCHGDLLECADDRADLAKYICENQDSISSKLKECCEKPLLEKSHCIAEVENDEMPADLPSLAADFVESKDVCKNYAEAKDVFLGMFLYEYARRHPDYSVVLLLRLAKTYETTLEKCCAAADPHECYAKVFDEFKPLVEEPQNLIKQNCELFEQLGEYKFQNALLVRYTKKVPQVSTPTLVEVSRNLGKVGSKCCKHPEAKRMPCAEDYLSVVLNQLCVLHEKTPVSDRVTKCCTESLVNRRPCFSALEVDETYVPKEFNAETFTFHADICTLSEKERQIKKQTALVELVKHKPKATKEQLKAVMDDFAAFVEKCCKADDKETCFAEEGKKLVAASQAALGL

Columns and labels:
[1] = target: human serum albumin spiked with Alexa fluor 488 conjugated bovine serum albumin (human) (UniProt P02768); test: SPARC immobilised on PVDF plate, HSA spiked with Alexa 488-BSA, fluorescence
[2] = target: human serum albumin spiked with Alexa fluor 488 conjugated bovine serum albumin (human) (UniProt P02768); test: Q3 SPARC immobilised on PVDF plate, HSA spiked with Alexa 488-BSA, fluorescence

B1: Full length, wild-type SPARC (protein, human, UniProt P09486 18-303, looked up)
chain: APQQEALPDETEVVEETVAEVTEVSVGANPVQVEVGEFDDGAEETEEEVVAENPCQNHHCKHGKVCELDENNTPMCVCQDPTSCPAPIGEFEKVCSNDNKTFDSSCHFFATKCTLEGTKKGHKLHLDYIGPCKYIPPCLDSELTEFPLRMRDWLKNVLVTLYERDEDNNLLTEKQKLRVKKIHENEKRLEAGDHPVELLARDFEKNYNMYIFPVHWQFGQLDQHPIDGYLSHTELAPLRAPLIPMEHCTTRFFETCDLDNDKYIALDEWAGCFGIKQKDIDKDLVI
In the case of B1, the binding [1] is reported as “binds”.

B2: SPARC deletion mutant in which the glutamine at residue 3 is deleted (protein, UniProt P09486 18-303, looked up)
chain: APQEALPDETEVVEETVAEVTEVSVGANPVQVEVGEFDDGAEETEEEVVAENPCQNHHCKHGKVCELDENNTPMCVCQDPTSCPAPIGEFEKVCSNDNKTFDSSCHFFATKCTLEGTKKGHKLHLDYIGPCKYIPPCLDSELTEFPLRMRDWLKNVLVTLYERDEDNNLLTEKQKLRVKKIHENEKRLEAGDHPVELLARDFEKNYNMYIFPVHWQFGQLDQHPIDGYLSHTELAPLRAPLIPMEHCTTRFFETCDLDNDKYIALDEWAGCFGIKQKDIDKDLVI
B2 was tested, and the binding [2] was “binds”.
